Paper PMC13082787
These are yes or no findings as the source states them, for the method shown. Tags and fused reporters may be left off the sequences shown.

Target: T1, Soluble YbjP (D28-R171) with an N-terminal His-tag (E. coli) (UniProt P75818)
T1 sequence: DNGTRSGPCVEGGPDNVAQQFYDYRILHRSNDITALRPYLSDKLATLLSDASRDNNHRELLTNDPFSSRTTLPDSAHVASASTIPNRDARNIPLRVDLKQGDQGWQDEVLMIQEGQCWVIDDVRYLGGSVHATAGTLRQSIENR
Assay: pull-down; in vitro affinity pull-down with purified proteins; which partner was immobilised in the tests with Pal is not told; both purified

binding: no binding
B1: Pal (peptidoglycan-associated protein) lipoprotein (protein, UniProt P0A912 22-173)
chain: CSSNKNASNDGSEGMLGAGTGMDANGGNGNMSSEEQARLQMQQLQQNNIVYFDLDKYDIRSDFAQMLDAHANFLRSNPSYKVTVEGHADERGTPEYNISLGERRANAVKMYLQGKGVSADQISIVSYGKEKPAVLGHDEAAYSKNRRAVLVY
